# In PubChem BioAssay (EPA / NIEHS):
# Values joined by “and” are separate entries in the source; they are usually repeats but may differ in a detail not shown here. Equal values may be shown once. Inconclusive results, whose numbers are uncertain, are shown with a selection of clear calls. Potencies of inconclusive entries are doubtful fits and often do not repeat. Active and inactive are the calls of the source. The calls were made as follows: active = hit-call score of the fitted dose curve at least 0.9, where 1 is the maximum; inconclusive = response in the unintended direction; inactive = score below 0.9.
# Assay: ACEA_ER_AUC_viability: ACEA Biosciences xCELLigence Real-Time Cell Analysis on Estrogen Receptor Agonism for Viability (AID 2283782);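 also: continuous compound exposure with impedance area under curve over 80 h; hit means loss of impedance signal meaning reduced cell growth or viability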
# In short: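 T-47D human breast cells in phenol red-free RPMI1640 with 10% charcoal-stripped FBS were dosed with an 8-point 1:4 dilution series from 100 uM top final concentration, in duplicate. Impedance-based growth was followed for 80 h; AUC analysed versus DMSO.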
Compound,outcome,AC50
O=[N+]([O-])c1ccc(CO)cc1,inactive,
CC(C)N(c1ccccc1)C(C)C,,inconclusive: 0.02 µM
C=CC(=O)NC(C)(C)CS(=O)(=O)O,,active: 11.2 µM
CCCc1ccc(OC)cc1,inactive,
CCCCCCCCC(=O)O,,inconclusive: 0.177 µM
CC(C)(C)c1cc(CCC(=O)OCC(COC(=O)CCc2cc(C(C)(C)C)c(O)c(C(C)(C)C)c2)(COC(=O)CCc2cc(C(C)(C)C)c(O)c(C(C)(C)C)c2)COC(=O)CCc2cc(C(C)(C)C)c(O)c(C(C)(C)C)c2)cc(C(C)(C)C)c1O,,inconclusive: 0.374 µM
CCCCCC=O,inactive,
Oc1cccc2c(O)cccc12,,active: 20.2 µM
C[C@]12CC[C@@H]3c4ccc(O)cc4CC[C@H]3[C@@H]1CC[C@H]2O,,inconclusive: 2.86 nM and inconclusive: 5.63 nM and inconclusive: 3.1 nM
CCCCC(CC)COC(=O)CCCCC(=O)OCc1ccccc1 (configuration not stated),,inconclusive: 50 µM
CCCCCCCCCCCC(=O)OCC(O)CO (configuration not stated),,active: 50 µM
Clc1cccc(Cl)n1,inactive,
CC(CC=O)CC(C)(C)C (configuration not stated),,inconclusive: 1.69 µM
CC(C)=CCO,,inconclusive: 50 µM
CCCCCCCCCCCC(=O)N(C)CC(=O)O,inactive,
O=c1n(CCO)c(=O)n(CCO)c(=O)n1CCO,inactive,
Cc1ccc(O)c(-n2nc3ccccc3n2)c1,,inconclusive: 0.0127 µM

# 3 compounds out of the list, ordered by formula weight, smallest number first.
Compound,outcome,AC50
CC(C)=CCO,,inconclusive: 50 µM
CC(C)N(c1ccccc1)C(C)C,,inconclusive: 0.02 µM
O=c1n(CCO)c(=O)n(CCO)c(=O)n1CCO,inactive,
